Measurements taken from the supplement of paper PMC10849652.
The other results are listed elsewhere or left out.

Amino acid sequences for entries named in this document (tags omitted). A change or cut given only in a name is not applied to a line headed by its entry.
UniProt Q96AE4: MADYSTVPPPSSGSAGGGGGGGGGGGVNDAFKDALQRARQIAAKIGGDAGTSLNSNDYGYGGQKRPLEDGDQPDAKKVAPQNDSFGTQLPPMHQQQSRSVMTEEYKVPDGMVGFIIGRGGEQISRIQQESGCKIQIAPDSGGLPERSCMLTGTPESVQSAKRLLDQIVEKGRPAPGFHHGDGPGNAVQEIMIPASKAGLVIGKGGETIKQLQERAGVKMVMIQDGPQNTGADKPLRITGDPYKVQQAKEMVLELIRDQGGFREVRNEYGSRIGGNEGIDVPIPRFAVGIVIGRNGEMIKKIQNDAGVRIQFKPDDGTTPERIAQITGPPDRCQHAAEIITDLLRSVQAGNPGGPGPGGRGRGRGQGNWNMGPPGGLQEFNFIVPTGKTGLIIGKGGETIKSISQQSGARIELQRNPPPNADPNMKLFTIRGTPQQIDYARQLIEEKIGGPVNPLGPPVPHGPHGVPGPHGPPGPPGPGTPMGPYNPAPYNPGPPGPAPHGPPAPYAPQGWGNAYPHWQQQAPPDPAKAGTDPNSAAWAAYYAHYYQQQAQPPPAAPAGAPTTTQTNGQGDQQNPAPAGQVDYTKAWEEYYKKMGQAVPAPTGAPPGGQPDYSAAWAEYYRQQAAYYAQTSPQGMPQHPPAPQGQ
UniProt P0CL80: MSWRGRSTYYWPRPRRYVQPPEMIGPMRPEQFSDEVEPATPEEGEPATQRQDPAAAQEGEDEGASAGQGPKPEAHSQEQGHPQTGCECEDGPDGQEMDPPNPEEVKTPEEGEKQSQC
UniProt P35637: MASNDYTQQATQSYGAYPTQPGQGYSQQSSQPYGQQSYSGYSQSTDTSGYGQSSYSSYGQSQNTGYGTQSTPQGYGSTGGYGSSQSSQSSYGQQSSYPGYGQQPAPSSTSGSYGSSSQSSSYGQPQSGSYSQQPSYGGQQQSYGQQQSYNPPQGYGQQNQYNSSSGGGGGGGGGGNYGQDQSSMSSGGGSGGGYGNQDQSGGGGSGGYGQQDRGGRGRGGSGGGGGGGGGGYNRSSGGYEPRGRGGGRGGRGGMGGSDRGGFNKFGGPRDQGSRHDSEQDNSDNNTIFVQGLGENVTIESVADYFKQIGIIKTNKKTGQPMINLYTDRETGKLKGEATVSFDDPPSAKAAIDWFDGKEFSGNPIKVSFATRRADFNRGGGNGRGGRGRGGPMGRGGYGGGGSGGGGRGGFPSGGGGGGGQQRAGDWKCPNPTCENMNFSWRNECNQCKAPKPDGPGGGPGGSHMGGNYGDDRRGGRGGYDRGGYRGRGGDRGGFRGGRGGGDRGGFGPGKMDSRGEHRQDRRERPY
UniProt Q16595: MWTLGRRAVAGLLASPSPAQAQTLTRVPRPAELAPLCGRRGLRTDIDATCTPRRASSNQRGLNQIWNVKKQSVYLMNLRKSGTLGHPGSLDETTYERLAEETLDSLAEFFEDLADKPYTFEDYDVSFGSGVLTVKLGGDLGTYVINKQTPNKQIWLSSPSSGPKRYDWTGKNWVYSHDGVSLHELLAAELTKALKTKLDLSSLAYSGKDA
UniProt O15117, whole entry, looked up: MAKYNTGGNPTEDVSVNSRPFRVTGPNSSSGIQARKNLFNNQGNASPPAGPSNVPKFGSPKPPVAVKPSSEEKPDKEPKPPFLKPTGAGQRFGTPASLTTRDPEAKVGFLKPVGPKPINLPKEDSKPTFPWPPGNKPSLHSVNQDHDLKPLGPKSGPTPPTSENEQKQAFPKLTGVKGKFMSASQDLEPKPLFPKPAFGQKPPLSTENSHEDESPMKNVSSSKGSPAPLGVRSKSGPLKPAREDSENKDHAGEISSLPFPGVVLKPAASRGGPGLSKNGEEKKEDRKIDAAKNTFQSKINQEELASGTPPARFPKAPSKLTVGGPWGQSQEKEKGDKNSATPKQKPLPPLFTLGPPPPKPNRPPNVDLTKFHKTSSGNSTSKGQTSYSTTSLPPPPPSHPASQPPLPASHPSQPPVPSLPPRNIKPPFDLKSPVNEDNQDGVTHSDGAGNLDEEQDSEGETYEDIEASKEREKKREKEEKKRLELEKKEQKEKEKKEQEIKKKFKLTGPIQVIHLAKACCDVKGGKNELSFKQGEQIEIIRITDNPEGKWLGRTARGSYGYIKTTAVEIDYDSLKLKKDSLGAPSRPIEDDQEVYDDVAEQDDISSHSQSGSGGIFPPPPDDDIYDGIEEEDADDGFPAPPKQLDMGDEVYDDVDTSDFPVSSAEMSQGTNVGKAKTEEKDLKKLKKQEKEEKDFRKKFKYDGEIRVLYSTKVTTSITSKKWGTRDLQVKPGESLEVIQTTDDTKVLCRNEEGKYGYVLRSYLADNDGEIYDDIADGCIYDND
UniProt Q8IXK2: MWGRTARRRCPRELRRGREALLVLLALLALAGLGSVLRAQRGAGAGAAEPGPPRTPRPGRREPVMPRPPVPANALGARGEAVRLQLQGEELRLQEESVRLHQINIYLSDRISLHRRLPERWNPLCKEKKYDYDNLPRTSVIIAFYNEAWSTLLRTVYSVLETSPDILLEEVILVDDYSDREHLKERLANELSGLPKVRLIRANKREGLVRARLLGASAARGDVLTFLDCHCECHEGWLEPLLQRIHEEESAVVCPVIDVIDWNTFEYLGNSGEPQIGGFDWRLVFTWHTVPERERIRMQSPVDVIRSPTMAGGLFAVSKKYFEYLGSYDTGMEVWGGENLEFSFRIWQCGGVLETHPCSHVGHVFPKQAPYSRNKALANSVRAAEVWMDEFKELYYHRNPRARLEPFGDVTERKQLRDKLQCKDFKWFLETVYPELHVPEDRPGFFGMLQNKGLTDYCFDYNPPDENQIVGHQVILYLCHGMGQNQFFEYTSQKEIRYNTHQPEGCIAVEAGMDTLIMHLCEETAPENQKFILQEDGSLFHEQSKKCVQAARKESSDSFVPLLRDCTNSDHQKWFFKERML
UniProt Q969S9: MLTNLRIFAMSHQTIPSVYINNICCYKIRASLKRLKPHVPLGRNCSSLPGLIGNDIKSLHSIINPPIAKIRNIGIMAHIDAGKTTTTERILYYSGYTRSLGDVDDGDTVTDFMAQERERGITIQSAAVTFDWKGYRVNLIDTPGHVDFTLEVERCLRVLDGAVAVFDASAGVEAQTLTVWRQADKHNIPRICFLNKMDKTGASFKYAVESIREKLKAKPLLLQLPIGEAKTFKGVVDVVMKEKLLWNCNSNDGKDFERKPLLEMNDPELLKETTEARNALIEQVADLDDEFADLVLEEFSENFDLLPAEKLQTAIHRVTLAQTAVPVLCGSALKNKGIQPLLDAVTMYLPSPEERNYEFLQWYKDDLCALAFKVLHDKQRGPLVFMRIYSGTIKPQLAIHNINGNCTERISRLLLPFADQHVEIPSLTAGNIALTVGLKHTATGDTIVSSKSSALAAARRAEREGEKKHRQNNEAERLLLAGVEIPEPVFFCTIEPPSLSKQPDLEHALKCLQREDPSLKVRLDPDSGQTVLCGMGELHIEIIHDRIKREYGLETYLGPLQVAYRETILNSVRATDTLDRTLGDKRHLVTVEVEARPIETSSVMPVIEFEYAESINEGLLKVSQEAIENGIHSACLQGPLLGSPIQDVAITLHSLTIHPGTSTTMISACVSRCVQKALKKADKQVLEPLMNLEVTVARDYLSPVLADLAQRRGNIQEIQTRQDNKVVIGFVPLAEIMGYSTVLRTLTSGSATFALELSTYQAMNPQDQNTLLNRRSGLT
UniProt Q04446: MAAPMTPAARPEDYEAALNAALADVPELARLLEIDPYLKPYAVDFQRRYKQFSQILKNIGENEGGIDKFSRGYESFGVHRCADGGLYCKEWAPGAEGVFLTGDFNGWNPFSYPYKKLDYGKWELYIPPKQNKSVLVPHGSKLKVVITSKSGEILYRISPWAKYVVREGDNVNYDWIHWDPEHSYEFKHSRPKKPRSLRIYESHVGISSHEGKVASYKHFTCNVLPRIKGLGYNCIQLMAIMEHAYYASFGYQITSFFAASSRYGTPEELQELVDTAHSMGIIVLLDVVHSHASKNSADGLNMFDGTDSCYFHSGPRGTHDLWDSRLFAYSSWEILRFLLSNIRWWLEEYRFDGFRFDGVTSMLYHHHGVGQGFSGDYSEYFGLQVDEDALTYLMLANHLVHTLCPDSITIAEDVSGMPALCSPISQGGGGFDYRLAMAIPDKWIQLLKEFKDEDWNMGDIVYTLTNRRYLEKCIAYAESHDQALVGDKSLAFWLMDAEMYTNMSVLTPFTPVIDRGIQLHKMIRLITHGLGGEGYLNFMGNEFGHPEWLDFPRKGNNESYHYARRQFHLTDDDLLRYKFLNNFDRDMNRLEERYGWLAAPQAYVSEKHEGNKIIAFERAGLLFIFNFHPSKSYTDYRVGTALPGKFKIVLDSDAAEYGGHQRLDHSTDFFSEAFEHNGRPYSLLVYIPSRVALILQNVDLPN

What was measured:
Assay in all cases: log2 fold change, soluble protein after heating vs DMSO (PISA); higher = thermal stabilisation; K562 lysate, 10 uM; active = over 0.2 and 3.5 SD of the protein, either way, in both replicates (recomputed)
alvocidib = compound: CN1CC[C@H](c2c(O)cc(O)c3c(=O)cc(-c4ccccc4Cl)oc23)[C@H](O)C1 [alvocidib]
In short: (§1)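 To prepare the extract, K562 pellets were dounce-homogenised in PBS pH 7.4 with 1 mM MgCl2, giving crude material at 1 mg/mL protein. This was treated with 10 μM compound for 30 min, then heated in aliquots for 3 min over 48°C-58°C before pooling and addition of NP-40 to 0.5% at 4°C. Centrifugation at 21,000xg for 90 min left soluble protein in the supernatant, which TMTpro 16plex LC-MS/MS quantified with equalised channel sums. Results are log-two fold changes in thermal stability compared with solvent controls, from duplicates.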

Tubastatin A = compound: CN1CCc2c(c3ccccc3n2Cc2ccc(C(=O)NO)cc2)C1 [Tubastatin A]
In short: as §1

[1] = compound: CNC(=O)C1=CC=CC=C1NC2=NC(=NC=C2Cl)NC3=C(C=C(C=C3)N4CCOCC4)OC
In short: as §1

defactinib = compound: CNC(=O)c1ccc(Nc2ncc(C(F)(F)F)c(NCc3nccnc3N(C)S(C)(=O)=O)n2)cc1 [defactinib]
In short: as §1

[2] = compound: CNc1nc(-c2ccc3c(N)n[nH]c3c2)cc(N2C[C@@H](C(=O)NC3CCCCC3)CC[C@H]2C)n1
In short: as §1

encorafenib = compound: COC(=O)N[C@@H](C)CNc1nccc(-c2cn(C(C)C)nc2-c2cc(Cl)cc(NS(C)(=O)=O)c2F)n1 [encorafenib]
In short: as §1

[3] = compound: COC(=O)[C@H](CCSC)NC(=O)C1=C(C=C(C=C1)NC[C@H](CS)N)C2=CC=CC=C2
In short: as §1

alisertib = compound: COc1cc(Nc2ncc3c(n2)-c2ccc(Cl)cc2C(c2c(F)cccc2OC)=NC3)ccc1C(=O)O [alisertib]
In short: as §1

[4] = compound: COc1cc2nc(-c3cc(F)ccc3O)nc(N[C@@H]3CNC[C@H]3C(C)(C)O)c2cc1OC
In short: as §1

gefitinib = compound: COc1cc2ncnc(Nc3ccc(F)c(Cl)c3)c2cc1OCCCN1CCOCC1 [gefitinib]
In short: as §1

lapatinib = compound: CS(=O)(=O)CCNCc1ccc(-c2ccc3ncnc(Nc4ccc(OCc5cccc(F)c5)c(Cl)c4)c3c2)o1 [lapatinib]
In short: as §1

pictilisib = compound: CS(=O)(=O)N1CCN(Cc2cc3nc(-c4cccc5[nH]ncc45)nc(N4CCOCC4)c3s2)CC1 [pictilisib]
In short: as §1

crizotinib = compound: C[C@@H](Oc1cc(-c2cnn(C3CCNCC3)c2)cnc1N)c1c(Cl)ccc(F)c1Cl [crizotinib]
In short: as §1

[5] = compound: C[C@H](C1=CC=C(C=C1)C(=O)NC2=C3C=CNC3=NC=C2)N
In short: as §1

duvelisib = compound: C[C@H](Nc1ncnc2nc[nH]c12)c1cc2cccc(Cl)c2c(=O)n1-c1ccccc1 [duvelisib]
In short: as §1

gandotinib = compound: Cc1cc(Nc2cc(CN3CCOCC3)c3nc(C)c(Cc4ccc(Cl)cc4F)n3n2)n[nH]1 [gandotinib]
In short: as §1

tozasertib = compound: Cc1cc(Nc2cc(N3CCN(C)CC3)nc(Sc3ccc(NC(=O)C4CC4)cc3)n2)n[nH]1 [tozasertib]
In short: as §1

doramapimod = compound: Cc1ccc(-n2nc(C(C)(C)C)cc2NC(=O)Nc2ccc(OCCN3CCOCC3)c3ccccc23)cc1 [doramapimod]
In short: as §1

bafetinib = compound: Cc1ccc(NC(=O)c2ccc(CN3CC[C@H](N(C)C)C3)c(C(F)(F)F)c2)cc1Nc1nccc(-c2cncnc2)n1 [bafetinib]
In short: as §1

[6] = compound: Cc1cccc(CC(=O)N2CCc3c2ccc(-c2cn(C)c4ncnc(N)c24)c3F)n1
In short: as §1

Measured: log2 fold change

FUBP1 (UniProt Q96AE4)
inactive: alvocidib -0.08 | Tubastatin A 0.082 | [1] 0.093 | defactinib -0.003 | [2] 0.064 | encorafenib 0.014 | [3] 0.034 | alisertib 0.185 | [4] -0.022 | gefitinib -0.135 | lapatinib 0.014 | pictilisib 0 | crizotinib -0.117 | [5] -0.178 | duvelisib -0.008 | gandotinib 0.126 | tozasertib -0.063 | doramapimod -0.216 | bafetinib -0.004 | [6] 0.043

GAGE12F (UniProt P0CL80)
inactive: alvocidib 0.066 | Tubastatin A 0.081 | [1] 0.082 | defactinib 0.145 | [2] 0.062 | encorafenib 0.037 | [3] -0.207 | alisertib 0.072 | [4] 0 | gefitinib -0.054 | lapatinib 0.065 | pictilisib -0.03 | crizotinib 0.01 | [5] 0.024 | duvelisib 0.056 | gandotinib -0.11 | tozasertib -0.045 | doramapimod -0.012 | bafetinib 0.032 | [6] -0.092

FUS (UniProt P35637)
inactive: alvocidib 0.046 | Tubastatin A 0.095 | [1] 0.028 | defactinib -0.01 | [2] 0.06 | encorafenib -0.008 | [3] -0.029 | alisertib 0.019 | [4] 0.014 | gefitinib 0.034 | lapatinib 0.024 | pictilisib -0.004 | crizotinib 0.021 | [5] 0.117 | duvelisib -0.027 | gandotinib -0.023 | tozasertib -0.014 | doramapimod -0.05 | bafetinib 0.06 | [6] -0.082

FXN (UniProt Q16595)
inactive: alvocidib -0.034 | Tubastatin A 0.081 | [1] 0.022 | defactinib 0.023 | [2] 0.027 | encorafenib 0 | [3] -0.025 | alisertib 0.042 | [4] -0.032 | gefitinib -0.158 | lapatinib 0.062 | pictilisib -0.052 | crizotinib 0.071 | [5] 0.113 | duvelisib -0.002 | gandotinib -0.077 | tozasertib 0.057 | doramapimod -0.038 | bafetinib 0.006 | [6] -0.058

FYB1 isoform 3 (UniProt O15117)
inactive: alvocidib -0.012 | Tubastatin A -0.001 | [1] 0.013 | defactinib 0.033 | [2] 0.065 | encorafenib -0.005 | [3] -0.035 | alisertib -0.012 | [4] -0.014 | gefitinib -0.029 | lapatinib 0.045 | pictilisib -0.008 | crizotinib -0.082 | [5] 0.147 | duvelisib 0.01 | gandotinib -0.051 | tozasertib 0.052 | doramapimod -0.007 | bafetinib -0.062 | [6] -0.058

GALNT12 (UniProt Q8IXK2)
inactive: alvocidib 0.015 | Tubastatin A 0.083 | [1] -0.016 | defactinib -0.059 | [2] -0.036 | encorafenib -0.007 | [3] 0.031 | alisertib -0.017 | [4] -0.023 | gefitinib 0.113 | lapatinib -0.06 | pictilisib 0.042 | crizotinib -0.028 | [5] -0.096 | duvelisib -0.143 | gandotinib -0.05 | tozasertib 0.025 | doramapimod 0.082 | bafetinib -0.109 | [6] 0.032

GFM2 (UniProt Q969S9)
inactive: alvocidib 0.012 | Tubastatin A -0.19 | [1] 0.069 | defactinib 0.033 | [2] 0.014 | encorafenib -0.007 | [3] -0.007 | alisertib 0.062 | [4] 0.033 | gefitinib 0.051 | lapatinib 0.07 | pictilisib 0.145 | crizotinib -0.007 | [5] 0.061 | duvelisib 0.03 | gandotinib -0.102 | tozasertib 0.015 | doramapimod -0.128 | bafetinib -0.071 | [6] 0.015

GBE1 (UniProt Q04446)
inactive: alvocidib 0.006 | Tubastatin A -0.013 | [1] -0.012 | defactinib -0.045 | [2] 0.022 | encorafenib 0.043 | [3] 0.009 | alisertib 0.013 | [4] 0.009 | gefitinib 0.071 | lapatinib 0.001 | pictilisib -0.035 | crizotinib -0.047 | [5] 0.058 | duvelisib -0.028 | gandotinib -0.118 | tozasertib 0.041 | doramapimod 0.018 | bafetinib -0.03 | [6] -0.022
